Reference: patent US20230000885A1, “Methods of Treating Psychological and Brain Disorders” (University of Maryland, Baltimore, priority 2019, published 2023)
“Also recorded” adds a separate entry of the source. For at least one compound, name, drawing or mass did not settle the structure.

What was measured:
male C57BI/6J mice [1] = assay: female urine sniff test (FUST) after chronic multimodal stress; type: in vivo; conditions: stress-susceptible CMMS mice, vs values after CMMS
[2] = humans; single administration; after 1 week, persisting up to 6 months; cited from earlier work
male C57BI/6J mice [3] = assay: sucrose preference test (SPT) after chronic multimodal stress (CMMS); type: in vivo; conditions: for sucrose preference (SP): stress-susceptible CMMS mice
male C57BI/6J mice [4] = assay: locomotion (video, Any-maze) after injection; type: in vivo; conditions: psilocybin at the dose used in this study (1 mg/kg)
[5] = system: hippocampal TA-CA1 synapses; assay: extracellular fEPSP recording in hippocampal slices from treated CMMS mice; type: in vivo; conditions: for AMPA:NMDA ratio of TA-CA1 fEPSP: vs stressed mice given vehicle or ketanserin only
[6] = psilocybin at the dose used in this study (1 mg/kg); cited from earlier work
[7] = psilocybin 1 mg/kg, two-way ANOVA

## CN(C)CCc1c[nH]c2cccc(OP(=O)(O)O)c12 [psilocybin, Psilocybin]
Male C57BI/6J mice [1]; psilocybin 1 mg/kg i.p. after ketanserin 2 mg/kg pretreatment
  preference for female urine: significantly increased preference for the scent of female urine
Male C57BI/6J mice [1]; psilocybin 1 mg/kg i.p. after ketanserin 2 mg/kg pretreatment, listed as Psilocybin
  preference for female urine: significantly increased sucrose and female urine preferences
Male C57BI/6J mice [1]; psilocybin 1 mg/kg i.p., vehicle pretreatment
  preference for female urine: significantly increased preference for the scent of female urine; also recorded: significant restoration of their preference for sucrose solution and female urine
[2]
  patient-reported depression scores: significantly improve patient-reported depression scores
Male C57BI/6J mice [3]; resilient mice (sucrose preference >65% after 14 days CMMS), psilocybin 1 mg/kg ip
  sucrose preference: no effect on sucrose preference; also recorded: did not display any significant change
Male C57BI/6J mice [3]; psilocybin 1 mg/kg i.p. 60 mins after ketanserin 2 mg/kg i.p., vs values after CMMS
  sucrose preference (SP): significantly increased sucrose preference
Male C57BI/6J mice [3]; psilocybin 1 mg/kg i.p. 60 mins after ketanserin 2 mg/kg i.p., vs values after CMMS, listed as Psilocybin
  sucrose preference (SP): significantly increased sucrose and female urine preferences
Male C57BI/6J mice [3]; psilocybin 1 mg/kg i.p., vehicle pretreatment, 24-48 hrs after injection vs values after CMMS
  sucrose preference (SP): significantly increased sucrose preference; also recorded: significant restoration of their preference for sucrose solution and female urine
Male C57BI/6J mice [4]
  mobility: no significant effect on head twitching or mobility
[5]; psilocybin 1 mg/kg after ketanserin 2 mg/kg pretreatment
  AMPA:NMDA ratio of TA-CA1 fEPSP: higher AMPA:NMDA ratios; also recorded: did not impair the ability of psilocybin to restore AMPA:NMDA ratios
[5]; [7]
  AMPA:FV ratio of the fEPSP: greater amplitude of the AMPAR-mediated component
  NMDA:FV ratio of the fEPSP: did not change the NMDA:FV ratio; also recorded: no significant change in the NMDAR-mediated component
[5]; psilocybin 1 mg/kg, two-way ANOVA, listed as Psilocybin
  AMPA:FV ratio of the fEPSP: increased the AMPA:FV ratio
[5]; psilocybin 1 mg/kg, vehicle pretreatment
  AMPA:NMDA ratio of TA-CA1 fEPSP: higher AMPA:NMDA ratios; also recorded: significantly greater
[6]
  head twitching: no significant effect on head twitching or mobility
